Data source: PubChem BioAssay AID720505 (Drosophila RNAi Screening Center, 2013)
The screen tested about 20,000 reagents; shown is an unselected part of those that have a named target and a result. Of all reagents, about 2,100 (10%) were called active. 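Raw plate signals without normalisation; calls rest on control-based scores that were not deposited; replicate 2 separates called from uncalled poorly.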 Unmarked entries are inactive. Reagents against one gene are numbered here. Not given: the amount of reagent, the time to read-out.

Aim: 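Fly regulators or components of the CRAC channel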 (primary screen)
Cell system: Drosophila S2R+ cells
Reagents: long dsRNA against Drosophila genes
Conditions: thapsigargin (2 µM) in calcium-free buffer to empty internal stores, then 2 mM calcium added back
Measured: 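Stores emptied by 2 µM thapsigargin without calcium, then 2 mM calcium re-added; fluo-4 fluorescence followed by FLIPR in 384-well plates, per-well averaged endpoint, raw; two screen passes, some wells retested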
Reading the numbers: calcium signal: higher = more calcium entry after store depletion
Rule for the call: 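About 1500 genes called as lowering calcium entry, by varying amounts, judged against per-plate control wells with STIM1 as positive and Rho1 as negative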
Meaning of the calls: active = called as lowering calcium entry; inactive = not called

{"Gene": "alphaSnap (GeneID 40233)", "reagent no.": 1, "calcium signal, replicate 1": "65 (active)", "calcium signal, replicate 2": 66.4}
{"Gene": "galectin (GeneID 33162)", "reagent no.": 1, "calcium signal, replicate 1": 198, "calcium signal, replicate 2": 150}
{"Gene": "Pex16 (GeneID 40293)", "reagent no.": 1, "calcium signal, replicate 1": 129, "calcium signal, replicate 2": 92.5}
{"Gene": "CG14301 (GeneID 42235)", "reagent no.": 1, "calcium signal, replicate 1": 188, "calcium signal, replicate 2": 178}
{"Gene": "msl-2 (GeneID 33565)", "reagent no.": 1, "calcium signal, replicate 1": 114, "calcium signal, replicate 2": 144}
{"Gene": "FucTD (GeneID 38164)", "reagent no.": 1, "calcium signal, replicate 1": 98.3, "calcium signal, replicate 2": 139}
{"Gene": "CG13403 (GeneID 32366)", "reagent no.": 1, "calcium signal, replicate 1": 94.6, "calcium signal, replicate 2": 111}
{"Gene": "CG15445 (GeneID 33094)", "reagent no.": 1, "calcium signal, replicate 1": 184, "calcium signal, replicate 2": 155}
{"Gene": "bsk (GeneID 44801)", "reagent no.": 1, "calcium signal, replicate 1": 101, "calcium signal, replicate 2": 101}
{"Gene": "Cdk5alpha (GeneID 34385)", "reagent no.": 1, "calcium signal, replicate 1": 198, "calcium signal, replicate 2": 147}
{"Gene": "Cdk5alpha (GeneID 34385)", "reagent no.": 2, "calcium signal, replicate 1": 155, "calcium signal, replicate 2": 159}
{"Gene": "CG10559 (GeneID 43063)", "reagent no.": 1, "calcium signal, replicate 1": 210, "calcium signal, replicate 2": 109}
{"Gene": "sing (GeneID 32644)", "reagent no.": 1, "calcium signal, replicate 1": 92.2, "calcium signal, replicate 2": 118}
{"Gene": "CG12516 (GeneID 43370)", "reagent no.": 1, "calcium signal, replicate 1": 153, "calcium signal, replicate 2": 142}
{"Gene": "CG5828 (GeneID 33742)", "reagent no.": 1, "calcium signal, replicate 1": "59.2 (active)", "calcium signal, replicate 2": 167}
{"Gene": "CG9166 (GeneID 38161)", "reagent no.": 1, "calcium signal, replicate 1": 84.2, "calcium signal, replicate 2": 143}
{"Gene": "CG5342 (GeneID 41389)", "reagent no.": 1, "calcium signal, replicate 1": 133, "calcium signal, replicate 2": 140}
{"Gene": "lectin-37Db (GeneID 3346221)", "reagent no.": 1, "calcium signal, replicate 1": 138, "calcium signal, replicate 2": 89.3}
{"Gene": "Zif (GeneID 40795)", "reagent no.": 1, "calcium signal, replicate 1": 131, "calcium signal, replicate 2": 133}
{"Gene": "CG14658 (GeneID 40603)", "reagent no.": 1, "calcium signal, replicate 1": 92.6, "calcium signal, replicate 2": 93}
{"Gene": "nsr (GeneID 37577)", "reagent no.": 1, "calcium signal, replicate 1": 158, "calcium signal, replicate 2": 90}
{"Gene": "nsr (GeneID 37577)", "reagent no.": 2, "calcium signal, replicate 1": 81.2, "calcium signal, replicate 2": 127}
{"Gene": "Polr3A (GeneID 32524)", "reagent no.": 1, "calcium signal, replicate 1": "90.5 (active)", "calcium signal, replicate 2": 92.4}
{"Gene": "CG31600 (GeneID 318834)", "reagent no.": 1, "calcium signal, replicate 1": 74.3, "calcium signal, replicate 2": 160}
{"Gene": "Nepl14 (GeneID 42700)", "reagent no.": 1, "calcium signal, replicate 1": 168, "calcium signal, replicate 2": 199}
{"Gene": "cpb (GeneID 33346)", "reagent no.": 1, "calcium signal, replicate 1": 135, "calcium signal, replicate 2": 246}
{"Gene": "Dlip1 (GeneID 53580)", "reagent no.": 1, "calcium signal, replicate 1": 66.4, "calcium signal, replicate 2": 114}
{"Gene": "TpnC4 (GeneID 35498)", "reagent no.": 1, "calcium signal, replicate 1": 139, "calcium signal, replicate 2": 152}
{"Gene": "CG34045 (GeneID 3885656)", "reagent no.": 1, "calcium signal, replicate 1": 135, "calcium signal, replicate 2": 82.7}
{"Gene": "RpS27A (GeneID 34420)", "reagent no.": 1, "calcium signal, replicate 1": 183, "calcium signal, replicate 2": 140}
{"Gene": "bic (GeneID 45827)", "reagent no.": 1, "calcium signal, replicate 1": 157, "calcium signal, replicate 2": 80.6}
{"Gene": "CG14691 (GeneID 41287)", "reagent no.": 1, "calcium signal, replicate 1": 163, "calcium signal, replicate 2": 72.5}
{"Gene": "T48 (GeneID 43235)", "reagent no.": 1, "calcium signal, replicate 1": 160, "calcium signal, replicate 2": 167}
{"Gene": "SCCRO4 (GeneID 40231)", "reagent no.": 1, "calcium signal, replicate 1": "69.4 (active)", "calcium signal, replicate 2": 131}
{"Gene": "Ip259 (GeneID 34419)", "reagent no.": 1, "calcium signal, replicate 1": 71.5, "calcium signal, replicate 2": 126}

6 of these entries, reformatted:
| Gene | reagent no. | calcium signal, replicate 1 | calcium signal, replicate 2 |
| --- | --- | --- | --- |
| CG9166 (GeneID 38161) | 1 | 84.2 | 143 |
| CG5342 (GeneID 41389) | 1 | 133 | 140 |
| lectin-37Db (GeneID 3346221) | 1 | 138 | 89.3 |
| Zif (GeneID 40795) | 1 | 131 | 133 |
| CG14658 (GeneID 40603) | 1 | 92.6 | 93 |
| nsr (GeneID 37577) | 1 | 158 | 90 |
